From the supplement of paper PMC10849652
Some of the results follow.

Protein sequences, listed by entry. Tags and fused reporters are not part of them. Lines headed by an entry give the natural chain unless they say otherwise; changes in a name come on top.
UniProt P31153, whole entry, looked up: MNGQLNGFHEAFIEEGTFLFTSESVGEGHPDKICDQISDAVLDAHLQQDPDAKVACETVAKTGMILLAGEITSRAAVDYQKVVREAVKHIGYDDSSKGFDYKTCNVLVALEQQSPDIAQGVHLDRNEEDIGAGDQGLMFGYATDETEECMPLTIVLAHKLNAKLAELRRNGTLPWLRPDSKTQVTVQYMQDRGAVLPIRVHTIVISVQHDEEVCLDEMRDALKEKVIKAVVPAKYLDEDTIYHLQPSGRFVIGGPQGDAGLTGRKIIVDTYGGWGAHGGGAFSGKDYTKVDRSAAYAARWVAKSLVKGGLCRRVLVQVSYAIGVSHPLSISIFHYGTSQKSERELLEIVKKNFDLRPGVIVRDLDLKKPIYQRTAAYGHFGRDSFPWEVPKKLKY
UniProt Q96HR3: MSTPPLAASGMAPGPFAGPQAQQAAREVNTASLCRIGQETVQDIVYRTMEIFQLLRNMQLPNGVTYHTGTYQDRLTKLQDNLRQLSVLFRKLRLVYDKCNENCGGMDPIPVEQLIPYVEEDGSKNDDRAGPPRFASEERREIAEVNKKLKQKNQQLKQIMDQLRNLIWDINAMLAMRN
UniProt P50579: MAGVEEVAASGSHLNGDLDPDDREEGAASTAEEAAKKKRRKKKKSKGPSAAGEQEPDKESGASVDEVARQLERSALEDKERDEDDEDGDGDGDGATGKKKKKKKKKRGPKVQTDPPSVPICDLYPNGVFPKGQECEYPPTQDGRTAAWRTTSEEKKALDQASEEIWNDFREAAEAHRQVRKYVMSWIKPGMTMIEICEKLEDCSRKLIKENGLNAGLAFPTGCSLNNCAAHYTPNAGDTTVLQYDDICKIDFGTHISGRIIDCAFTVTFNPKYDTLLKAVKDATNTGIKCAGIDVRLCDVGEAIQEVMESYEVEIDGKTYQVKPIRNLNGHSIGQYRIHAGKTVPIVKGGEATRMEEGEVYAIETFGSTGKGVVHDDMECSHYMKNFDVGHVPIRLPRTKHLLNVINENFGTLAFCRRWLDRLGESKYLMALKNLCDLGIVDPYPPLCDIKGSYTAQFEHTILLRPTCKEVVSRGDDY
UniProt Q09328: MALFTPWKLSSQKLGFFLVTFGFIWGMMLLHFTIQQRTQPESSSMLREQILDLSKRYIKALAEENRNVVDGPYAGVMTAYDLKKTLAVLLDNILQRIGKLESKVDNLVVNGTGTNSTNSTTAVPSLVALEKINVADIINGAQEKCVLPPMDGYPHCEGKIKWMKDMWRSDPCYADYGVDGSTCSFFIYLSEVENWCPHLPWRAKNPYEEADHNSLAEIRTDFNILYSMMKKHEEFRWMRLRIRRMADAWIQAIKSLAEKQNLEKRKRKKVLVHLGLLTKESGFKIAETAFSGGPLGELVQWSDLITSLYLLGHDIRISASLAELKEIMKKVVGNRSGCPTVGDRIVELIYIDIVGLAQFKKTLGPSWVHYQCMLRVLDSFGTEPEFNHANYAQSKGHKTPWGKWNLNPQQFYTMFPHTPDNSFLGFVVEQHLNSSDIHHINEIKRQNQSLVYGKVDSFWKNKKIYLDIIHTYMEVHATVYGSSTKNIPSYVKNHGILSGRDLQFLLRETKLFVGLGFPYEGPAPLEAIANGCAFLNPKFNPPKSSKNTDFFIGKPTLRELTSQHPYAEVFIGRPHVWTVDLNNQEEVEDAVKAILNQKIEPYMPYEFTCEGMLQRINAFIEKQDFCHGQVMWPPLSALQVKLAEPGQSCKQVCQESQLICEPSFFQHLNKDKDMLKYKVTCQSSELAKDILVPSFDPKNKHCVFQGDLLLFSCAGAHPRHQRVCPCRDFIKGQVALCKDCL
UniProt Q5SR56: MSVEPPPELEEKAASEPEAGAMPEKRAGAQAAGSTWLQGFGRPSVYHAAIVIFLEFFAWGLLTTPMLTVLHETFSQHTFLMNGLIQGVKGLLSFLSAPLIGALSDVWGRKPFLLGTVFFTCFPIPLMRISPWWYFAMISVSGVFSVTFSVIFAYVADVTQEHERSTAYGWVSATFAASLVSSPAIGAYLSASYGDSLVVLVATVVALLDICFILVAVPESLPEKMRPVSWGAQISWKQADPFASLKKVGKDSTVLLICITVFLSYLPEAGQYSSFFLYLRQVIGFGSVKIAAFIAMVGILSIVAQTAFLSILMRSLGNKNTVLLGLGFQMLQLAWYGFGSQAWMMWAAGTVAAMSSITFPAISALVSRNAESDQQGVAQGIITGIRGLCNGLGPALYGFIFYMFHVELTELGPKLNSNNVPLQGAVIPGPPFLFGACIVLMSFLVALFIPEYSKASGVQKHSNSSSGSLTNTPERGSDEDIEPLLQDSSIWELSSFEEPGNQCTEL
UniProt P21741: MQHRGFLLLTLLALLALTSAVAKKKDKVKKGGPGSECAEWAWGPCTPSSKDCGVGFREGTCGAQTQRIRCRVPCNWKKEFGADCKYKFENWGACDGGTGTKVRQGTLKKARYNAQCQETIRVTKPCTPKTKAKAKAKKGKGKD
UniProt Q9NR56: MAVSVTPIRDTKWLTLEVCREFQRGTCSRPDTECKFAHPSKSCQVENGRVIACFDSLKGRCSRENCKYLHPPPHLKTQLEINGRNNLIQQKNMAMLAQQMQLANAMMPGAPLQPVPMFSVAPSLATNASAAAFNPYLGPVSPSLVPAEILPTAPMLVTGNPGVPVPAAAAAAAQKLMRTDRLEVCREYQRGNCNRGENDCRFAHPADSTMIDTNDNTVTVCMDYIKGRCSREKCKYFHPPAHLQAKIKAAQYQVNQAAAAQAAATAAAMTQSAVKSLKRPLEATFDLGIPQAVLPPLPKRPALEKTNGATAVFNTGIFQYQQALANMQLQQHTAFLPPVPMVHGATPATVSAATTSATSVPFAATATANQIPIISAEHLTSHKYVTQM
UniProt Q9NZL9, whole entry, looked up: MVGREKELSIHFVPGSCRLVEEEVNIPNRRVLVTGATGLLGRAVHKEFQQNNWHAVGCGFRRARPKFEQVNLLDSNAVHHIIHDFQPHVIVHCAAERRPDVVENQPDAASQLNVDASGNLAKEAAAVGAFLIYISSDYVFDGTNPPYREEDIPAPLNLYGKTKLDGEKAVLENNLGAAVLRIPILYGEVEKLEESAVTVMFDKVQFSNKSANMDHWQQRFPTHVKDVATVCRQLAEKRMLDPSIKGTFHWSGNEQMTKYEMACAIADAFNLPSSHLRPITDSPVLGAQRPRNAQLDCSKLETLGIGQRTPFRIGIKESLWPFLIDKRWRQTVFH
UniProt Q6P2C8: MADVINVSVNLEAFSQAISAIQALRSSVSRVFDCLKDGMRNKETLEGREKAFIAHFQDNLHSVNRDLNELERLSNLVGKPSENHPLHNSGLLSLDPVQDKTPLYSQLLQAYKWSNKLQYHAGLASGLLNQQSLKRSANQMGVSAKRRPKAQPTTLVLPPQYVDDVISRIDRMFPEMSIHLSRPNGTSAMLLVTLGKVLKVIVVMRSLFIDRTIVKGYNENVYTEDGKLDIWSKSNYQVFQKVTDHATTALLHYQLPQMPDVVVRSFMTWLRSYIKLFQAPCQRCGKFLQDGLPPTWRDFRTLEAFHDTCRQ
UniProt Q9H944: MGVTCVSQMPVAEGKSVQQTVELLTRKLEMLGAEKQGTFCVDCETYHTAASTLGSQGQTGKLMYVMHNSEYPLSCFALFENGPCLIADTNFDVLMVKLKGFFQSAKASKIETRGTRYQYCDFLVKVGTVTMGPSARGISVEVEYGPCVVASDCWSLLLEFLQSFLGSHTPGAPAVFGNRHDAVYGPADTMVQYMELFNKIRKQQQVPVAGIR
UniProt Q9H204: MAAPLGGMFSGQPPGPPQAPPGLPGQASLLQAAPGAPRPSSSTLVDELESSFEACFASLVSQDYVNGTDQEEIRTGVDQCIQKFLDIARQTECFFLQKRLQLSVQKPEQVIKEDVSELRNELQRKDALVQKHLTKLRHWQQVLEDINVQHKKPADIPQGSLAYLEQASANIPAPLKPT
UniProt Q9H7H0: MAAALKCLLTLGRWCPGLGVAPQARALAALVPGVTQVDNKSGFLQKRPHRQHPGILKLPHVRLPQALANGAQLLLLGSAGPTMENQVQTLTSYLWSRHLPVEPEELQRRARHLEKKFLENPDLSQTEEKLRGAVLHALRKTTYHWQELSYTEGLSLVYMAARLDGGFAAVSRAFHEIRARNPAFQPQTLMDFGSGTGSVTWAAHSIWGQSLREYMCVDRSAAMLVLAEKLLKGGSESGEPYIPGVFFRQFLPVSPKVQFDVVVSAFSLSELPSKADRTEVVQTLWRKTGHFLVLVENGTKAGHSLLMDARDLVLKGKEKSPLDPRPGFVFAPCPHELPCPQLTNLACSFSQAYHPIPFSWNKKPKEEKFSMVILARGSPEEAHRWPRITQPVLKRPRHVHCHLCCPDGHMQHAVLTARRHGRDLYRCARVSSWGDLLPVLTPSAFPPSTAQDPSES
UniProt Q6UB28: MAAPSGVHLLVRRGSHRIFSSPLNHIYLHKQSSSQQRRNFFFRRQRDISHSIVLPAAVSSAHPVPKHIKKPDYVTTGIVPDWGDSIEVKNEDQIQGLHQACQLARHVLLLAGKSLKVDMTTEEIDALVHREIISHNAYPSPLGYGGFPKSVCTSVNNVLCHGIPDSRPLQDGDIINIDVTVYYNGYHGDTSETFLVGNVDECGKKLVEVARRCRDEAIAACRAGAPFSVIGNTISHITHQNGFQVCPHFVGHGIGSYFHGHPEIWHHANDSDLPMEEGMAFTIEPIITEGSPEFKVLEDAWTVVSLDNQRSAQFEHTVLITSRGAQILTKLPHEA

Key:
Test in all cases: log2 fold change, soluble protein after heating vs DMSO (PISA); higher = thermal stabilisation; K562 cells, 10 uM, 30 min; active = over 0.2 and 3.5 SD of the protein, either way, in both replicates (recomputed)
[1] = compound: NC(=O)Nc1cc(-c2cccc(F)c2)sc1C(=O)N[C@H]1CCCNC1
Summary of the method: (§1)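 K562 cells at 2×10^6 cells/mL were given 10 μM compound for 30 min. Aliquots then went through 3 min of heating across 48°C-58°C, were pooled, and were extracted in PBS with 0.5% NP-40 at 4°C, and the supernatant after 21,000xg for 90 min was quantified by TMTpro 16plex LC-MS/MS with channel sums equalised. Thermal stability relative to control samples, from duplicates, is given as log2 fold change.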

[2] = compound: NC(=O)c1cnc(N[C@@H]2CCCC[C@@H]2N)nc1Nc1cccc(-n2nccn2)c1
Summary of the method: as §1

[3] = compound: NC1(c2ccc(-c3nc4ccn5c(=O)[nH]nc5c4cc3-c3ccccc3)cc2)CCC1
Summary of the method: as §1

[4] = compound: NCC(=O)Nc1ccc(-n2nc(C(F)(F)F)cc2-c2ccc3c(ccc4ccccc43)c2)cc1
Summary of the method: as §1

entinostat = compound: Nc1ccccc1NC(=O)c1ccc(CNC(=O)OCc2cccnc2)cc1 [entinostat]
Summary of the method: as §1

vorinostat = compound: O=C(CCCCCCC(=O)Nc1ccccc1)NO [vorinostat]
Summary of the method: as §1

citarinostat = compound: O=C(CCCCCCNC(=O)c1cnc(N(c2ccccc2)c2ccccc2Cl)nc1)NO [citarinostat]
Summary of the method: as §1

silmitasertib = compound: O=C(O)c1ccc2c(c1)nc(Nc1cccc(Cl)c1)c1ccncc12 [silmitasertib]
Summary of the method: as §1

[5] = compound: O=C1NC(=O)C(c2cnc3ccccn23)=C1c1cn2c3c(cc(F)cc13)CN(C(=O)N1CCCCC1)CC2
Summary of the method: as §1

[6] = compound: c1cc(OCCN2CCCCC2)cc(-c2n[nH]c3ccc(-c4nnc[nH]4)cc23)c1
Summary of the method: as §1

Measured: log2 fold change

MAT2A (UniProt P31153)
inactive: [1] -0.023 | [2] 0.02 | [3] 0.005 | [4] 0.003 | entinostat -0.04 | vorinostat -0.031 | citarinostat -0.013 | silmitasertib -0.023 | [5] -0.065 | [6] 0.02

MED30 (UniProt Q96HR3)
inactive: [1] -0.131 | [2] 0.021 | [3] 0.039 | [4] -0.032 | entinostat -0.065 | citarinostat -0.049 | silmitasertib 0.007 | [5] -0.048 | [6] -0.073

METAP2 (UniProt P50579)
inactive: [1] -0.157 | [2] 0.01 | [3] 0.075 | [4] 0.027 | entinostat -0.081 | vorinostat 0.071 | citarinostat -0.012 | silmitasertib -0.027 | [5] -0.004 | [6] -0.018

MGAT5 (UniProt Q09328)
inactive: [1] 0.005 | [2] 0.052 | [3] -0.006 | [4] 0.096 | entinostat 0.019 | vorinostat -0.065 | citarinostat 0.015 | silmitasertib 0.024 | [5] 0.03 | [6] 0.005

2 records picked at random from those above, as already listed:
MGAT5 (UniProt Q09328)
inactive: [1] 0.005 | [2] 0.052 | [3] -0.006 | [4] 0.096 | entinostat 0.019 | vorinostat -0.065 | citarinostat 0.015 | silmitasertib 0.024 | [5] 0.03 | [6] 0.005

METAP2 (UniProt P50579)
inactive: [1] -0.157 | [2] 0.01 | [3] 0.075 | [4] 0.027 | entinostat -0.081 | vorinostat 0.071 | citarinostat -0.012 | silmitasertib -0.027 | [5] -0.004 | [6] -0.018

(cont.)

MFSD14B (UniProt Q5SR56)
inactive: [1] -0.038 | [2] -0.057 | [3] 0.145 | [4] 0.162 | entinostat 0.098 | citarinostat -0.04 | silmitasertib -0.02 | [5] 0.097 | [6] -0.096

MDK (UniProt P21741)
inactive: [1] -0.279 | [2] 0.079 | [3] 0.415 | entinostat -0.148 | vorinostat 0.107 | silmitasertib 0.13

MBNL1 (UniProt Q9NR56)
inactive: [1] -0.017 | [2] 0.003 | [3] 0.01 | [4] 0 | entinostat 0.01 | vorinostat -0.044 | citarinostat 0.001 | silmitasertib 0.05 | [5] -0.011 | [6] 0

MAT2B (UniProt Q9NZL9)
inactive: [1] -0.038 | [2] -0.058 | [3] 0 | [4] -0.036 | entinostat -0.036 | vorinostat -0.002 | citarinostat -0.012 | silmitasertib 0.006 | [5] -0.058 | [6] 0.002

MED27 (UniProt Q6P2C8)
inactive: [1] -0.033 | [2] -0.331 | [3] -0.028 | entinostat 0.131 | vorinostat -0.016 | silmitasertib -0.057 | [5] 0.019

MED20 (UniProt Q9H944)
inactive: [1] -0.045 | [2] -0.053 | [3] -0.062 | [4] 0.015 | entinostat 0.006 | vorinostat 0.077 | citarinostat 0.019 | silmitasertib 0.01 | [5] -0.054 | [6] -0.073

METAP1 (UniProt P53582)
inactive: [1] 0.002 | [2] -0.039 | [3] 0.041 | [4] 0.027 | entinostat -0.033 | vorinostat -0.034 | citarinostat -0.021 | silmitasertib 0.02 | [5] 0.016 | [6] -0.012

MED28 (UniProt Q9H204)
inactive: [1] -0.041 | [2] -0.021 | [3] -0.027 | entinostat -0.019 | vorinostat -0.086 | citarinostat -0.029 | silmitasertib 0.014 | [6] 0.019

METTL17 isoform 3 (UniProt Q9H7H0)
inactive: [1] 0.137 | [2] 0.026 | [3] -0.107 | entinostat -0.065 | citarinostat 0.1 | silmitasertib 0.037 | [6] -0.101

METAP1D (UniProt Q6UB28)
inactive: [1] 0.061 | [2] 0.252 | [3] -0.033 | [4] 0.073 | entinostat -0.071 | citarinostat 0.098 | silmitasertib 0.064 | [5] -0.099 | [6] -0.04
